Results are given in words; binding and its absence hold for the method and conditions named. Binding seen in cells or lysates may run through a third protein. Some results given as binding are weak or reduced against the parent protein; the word gives no strength. For part of these data: Sequences can lack the tags named with a protein.
Assays:
[1] = target: Flag-tagged human Aurora B, wild-type (full-length) (human) (UniProt Q96GD4); assay: co-IP; purified Flag-tagged Aurora B mixed with 293T extracts containing HA-tagged INCENP (IN-box polypeptide); immunoprecipitated with anti-Flag antibody; HA-INCENP detected by western blotting with anti-HA antibody; only the target purified
[2] = target: GST-tagged rat Aurora B, kinase-dead [K109R] (rat) (UniProt O55099); assay: pull-down; GST-Aurora B (rat) and His-tagged INCENP IN-box (mouse) co-expressed in Sf9 cells by co-infection of baculoviruses; complex purified by affinity chromatography on glutathione-sepharose 4B
[3] = target: GST-tagged rat Aurora B, wild-type (rat) (UniProt O55099); assay: as above

Sequences of proteins named here, by UniProt entry; tags and fusion partners are left off. A change or cut given only in a name is not applied to a line headed by its entry. Residues count along the entry.
UniProt Q96GD4: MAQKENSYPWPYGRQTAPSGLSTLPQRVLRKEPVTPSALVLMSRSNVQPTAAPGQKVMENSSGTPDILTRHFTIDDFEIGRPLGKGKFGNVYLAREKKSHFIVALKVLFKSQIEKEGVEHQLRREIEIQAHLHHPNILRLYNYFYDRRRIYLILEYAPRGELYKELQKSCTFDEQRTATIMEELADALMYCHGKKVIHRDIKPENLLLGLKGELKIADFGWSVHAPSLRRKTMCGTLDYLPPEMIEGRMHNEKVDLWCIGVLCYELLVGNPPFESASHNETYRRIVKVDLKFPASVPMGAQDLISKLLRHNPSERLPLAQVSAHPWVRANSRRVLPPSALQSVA
UniProt O55099: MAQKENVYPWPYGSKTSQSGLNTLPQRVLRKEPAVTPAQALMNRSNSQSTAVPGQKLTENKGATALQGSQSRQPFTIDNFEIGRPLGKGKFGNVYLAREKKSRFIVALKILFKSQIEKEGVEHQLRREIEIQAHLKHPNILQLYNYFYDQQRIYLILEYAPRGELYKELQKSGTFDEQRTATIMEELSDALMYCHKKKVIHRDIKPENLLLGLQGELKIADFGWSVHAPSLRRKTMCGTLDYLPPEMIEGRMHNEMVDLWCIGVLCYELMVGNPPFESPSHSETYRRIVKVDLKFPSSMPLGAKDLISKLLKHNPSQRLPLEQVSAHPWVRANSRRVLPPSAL
UniProt Q9NQS7, residues 803-918: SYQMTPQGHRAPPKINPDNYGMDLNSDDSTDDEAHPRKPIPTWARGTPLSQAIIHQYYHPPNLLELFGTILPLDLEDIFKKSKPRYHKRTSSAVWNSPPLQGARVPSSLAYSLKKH

binding [1]	binding [2]	binding [3]	Molecule
binds	–	–	HA-tagged INCENP (IN-box polypeptide; amino acids 803-918) (from UniProt Q9NQS7 803-918) (domain or fragment)
–	binds	binds	His-tagged IN-box (amino acids 786-876) of mouse INCENP (domain or fragment, UniProt Q9WU62 786-876) SVDDYGMDLNSDDSTDDESHPRKPIPSWAKGTQLSQAIVHQYYHPPNILELFGSILPLDLEDIFKKRKTRYHKRTSSAVWNSPPLKATMVP

From paper PMC6901529
